Laboratory results: paper PMC5808446
No constants are given. Whether binding was seen depends on the method and setting.

By UniProt entry, the sequences of proteins in these tests, tags left out. Where a name states a change or a piece, a line headed by the entry shows the natural chain unless it says otherwise. Residues count along the entry.
UniProt P03372: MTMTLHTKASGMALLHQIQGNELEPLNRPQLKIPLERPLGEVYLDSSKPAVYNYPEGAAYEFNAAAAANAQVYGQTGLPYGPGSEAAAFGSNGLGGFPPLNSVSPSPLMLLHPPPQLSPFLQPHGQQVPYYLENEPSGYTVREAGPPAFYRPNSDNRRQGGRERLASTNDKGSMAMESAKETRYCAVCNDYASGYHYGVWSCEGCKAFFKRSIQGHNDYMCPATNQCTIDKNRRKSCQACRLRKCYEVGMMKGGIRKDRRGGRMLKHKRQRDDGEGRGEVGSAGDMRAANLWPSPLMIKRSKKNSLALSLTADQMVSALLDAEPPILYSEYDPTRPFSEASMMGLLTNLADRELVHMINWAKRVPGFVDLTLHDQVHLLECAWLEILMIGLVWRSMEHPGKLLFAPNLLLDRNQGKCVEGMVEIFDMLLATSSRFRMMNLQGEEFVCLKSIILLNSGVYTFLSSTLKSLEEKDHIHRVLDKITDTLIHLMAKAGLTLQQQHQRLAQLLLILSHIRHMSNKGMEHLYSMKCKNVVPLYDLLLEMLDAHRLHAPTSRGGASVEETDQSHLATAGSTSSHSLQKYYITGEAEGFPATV
His-ERα fragment aa 1–300: residues 1-300 of P03372
His-ERα fragment aa 294–595: residues 294-595 of P03372
UniProt Q9HCE7: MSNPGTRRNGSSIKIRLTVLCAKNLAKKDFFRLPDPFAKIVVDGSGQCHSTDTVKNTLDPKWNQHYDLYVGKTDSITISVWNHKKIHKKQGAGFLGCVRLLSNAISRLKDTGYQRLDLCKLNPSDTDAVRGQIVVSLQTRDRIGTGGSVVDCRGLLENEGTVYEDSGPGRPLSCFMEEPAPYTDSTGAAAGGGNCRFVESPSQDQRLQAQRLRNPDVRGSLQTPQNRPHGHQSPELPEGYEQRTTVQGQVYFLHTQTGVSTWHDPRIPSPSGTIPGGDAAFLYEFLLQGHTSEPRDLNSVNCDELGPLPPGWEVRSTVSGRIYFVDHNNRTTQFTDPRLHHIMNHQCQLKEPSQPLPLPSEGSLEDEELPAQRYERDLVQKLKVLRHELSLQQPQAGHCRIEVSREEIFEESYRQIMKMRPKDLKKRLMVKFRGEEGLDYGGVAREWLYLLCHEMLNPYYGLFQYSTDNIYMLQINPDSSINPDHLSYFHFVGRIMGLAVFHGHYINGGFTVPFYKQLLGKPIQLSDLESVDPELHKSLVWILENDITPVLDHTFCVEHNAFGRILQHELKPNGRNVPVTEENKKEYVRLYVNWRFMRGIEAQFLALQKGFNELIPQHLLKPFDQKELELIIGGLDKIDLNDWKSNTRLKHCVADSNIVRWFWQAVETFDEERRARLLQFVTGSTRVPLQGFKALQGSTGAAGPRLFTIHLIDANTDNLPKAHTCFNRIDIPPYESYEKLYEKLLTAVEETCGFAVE

Tests used:
[1] = biological target: His-ERα fragment aa 1–300 (UniProt P03372); test: pull-down; E. coli-expressed His-ERα fragments (Ni-NTA resin) and GST-SMURF1 (purified on glutathione-Sepharose); mixture 4 °C, 30 min with rotation; washed with PBS 30 mM imidazole and PBS 0.01% Triton X-100; eluted with 250 mM imidazole; SDS-PAGE; both purified
[2] = biological target: His-ERα fragment aa 294–595 (UniProt P03372); test: as above

binding [1]: no binding
binding [2]: no binding
Substance: GST-fusion SMURF1 (from UniProt Q9HCE7 1-757) (enzyme)
